Measurements from patent publication US20110190142A1, “DETERMINATION OF RENIN-PRORENIN RECEPTOR ACTIVITY” (Charite- Universitatsmedizin Berlin, priority 2006, published 2011).
No constants are given. Whether binding was seen depends on the method and setting. Binding seen in cells or lysates may run through a third protein. Some entries that bind do so weakly or less than the wild type. For some of these results: Where a sequence is shown, tags or fusion partners need not be part of it. One block for each molecule: values may come before it.

Protein sequences, listed by entry. Tags and fused reporters are not part of them. Residues count along the entry.
UniProt O75787, residues 17-350: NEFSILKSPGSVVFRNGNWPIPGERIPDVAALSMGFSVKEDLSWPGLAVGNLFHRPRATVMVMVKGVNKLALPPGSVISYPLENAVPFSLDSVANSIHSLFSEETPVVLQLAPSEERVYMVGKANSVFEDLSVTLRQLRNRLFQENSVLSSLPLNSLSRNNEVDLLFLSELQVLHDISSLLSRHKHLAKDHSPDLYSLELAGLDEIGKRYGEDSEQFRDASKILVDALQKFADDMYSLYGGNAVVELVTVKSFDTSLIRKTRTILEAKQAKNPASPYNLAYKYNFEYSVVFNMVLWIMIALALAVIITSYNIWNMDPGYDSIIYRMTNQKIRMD

Experiments:
[1] = biological target: human RER carrying a second, different tag (homodimer coIP) (human) (UniProt O75787); experiment: co-immunoprecipitation of two differently tagged human RER constructs, transfected HEK293 cells
[2] = biological target: full-length human RER fused to EGFP (RER full) (human) (UniProt O75787); experiment: co-immunoprecipitation of EGFP-fused RER constructs with PLZF-myc on anti-myc agarose, HEK293 cells
[3] = biological target: FLAG-tagged full-length human RER (pCEP4-RER-FLAG) (human) (UniProt O75787); experiment: co-immunoprecipitation from transfected HEK293 cells (FLAG-tagged RER, c-myc-tagged PLZF), Western blot
[4] = biological target: endogenous human RER of HEK293 cells (human) (UniProt O75787); experiment: endogenous co-immunoprecipitation from HEK293 total lysate with anti-PLZF antibody, Western blot for RER

- binding [1]: binds
Molecule: human RER carrying a first tag (homodimer coIP) (from UniProt O75787 17-350) (receptor)

- binding [2]: binds
- binding [3]: binds
B1: c-myc-tagged full-length human PLZF (pCEP4-PLZF-myc) (protein, UniProt Q05516 1-673, looked up, not shown: small tags and cut ends)
chain: MDLTKMGMIQLQNPSHPTGLLCKANQMRLAGTLCDVVIMVDSQEFHAHRTVLACTSKMFEILFHRNSQHYTLDFLSPKTFQQILEYAYTATLQAKAEDLDDLLYAAEILEIEYLEEQCLKMLETIQASDDNDTEATMADGGAEEEEDRKARYLKNIFISKHSSEESGYASVAGQSLPGPMVDQSPSVSTSFGLSAMSPTKAAVDSLMTIGQSLLQGTLQPPAGPEEPTLAGGGRHPGVAEVKTEMMQVDEVPSQDSPGAAESSISGGMGDKVEERGKEGPGTPTRSSVITSARELHYGREESAEQVPPPAEAGQAPTGRPEHPAPPPEKHLGIYSVLPNHKADAVLSMPSSVTSGLHVQPALAVSMDFSTYGGLLPQGFIQRELFSKLGELAVGMKSESRTIGEQCSVCGVELPDNEAVEQHRKLHSGMKTYGCELCGKRFLDSLRLRMHLLAHSAGAKAFVCDQCGAQFSKEDALETHRQTHTGTDMAVFCLLCGKRFQAQSALQQHMEVHAGVRSYICSECNRTFPSHTALKRHLRSHTGDHPYECEFCGSCFRDESTLKSHKRIHTGEKPYECNGCGKKFSLKHQLETHYRVHTGEKPFECKLCHQRSRDYSAMIKHLRTHNGASPYQCTICTEYCPSLSSMQKHMKGHKPEEIPPDWRIEKTYLYLCYV

- binding [4]: binds
B2: endogenous human PLZF of HEK293 cells (protein, UniProt Q05516 1-673, looked up)
chain: MDLTKMGMIQLQNPSHPTGLLCKANQMRLAGTLCDVVIMVDSQEFHAHRTVLACTSKMFEILFHRNSQHYTLDFLSPKTFQQILEYAYTATLQAKAEDLDDLLYAAEILEIEYLEEQCLKMLETIQASDDNDTEATMADGGAEEEEDRKARYLKNIFISKHSSEESGYASVAGQSLPGPMVDQSPSVSTSFGLSAMSPTKAAVDSLMTIGQSLLQGTLQPPAGPEEPTLAGGGRHPGVAEVKTEMMQVDEVPSQDSPGAAESSISGGMGDKVEERGKEGPGTPTRSSVITSARELHYGREESAEQVPPPAEAGQAPTGRPEHPAPPPEKHLGIYSVLPNHKADAVLSMPSSVTSGLHVQPALAVSMDFSTYGGLLPQGFIQRELFSKLGELAVGMKSESRTIGEQCSVCGVELPDNEAVEQHRKLHSGMKTYGCELCGKRFLDSLRLRMHLLAHSAGAKAFVCDQCGAQFSKEDALETHRQTHTGTDMAVFCLLCGKRFQAQSALQQHMEVHAGVRSYICSECNRTFPSHTALKRHLRSHTGDHPYECEFCGSCFRDESTLKSHKRIHTGEKPYECNGCGKKFSLKHQLETHYRVHTGEKPFECKLCHQRSRDYSAMIKHLRTHNGASPYQCTICTEYCPSLSSMQKHMKGHKPEEIPPDWRIEKTYLYLCYV
